PubChem BioAssay AID1259425, University of Nebraska Medical Center | 2018
Assay: 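Find knockdowns that reproduce the gene expression pattern seen when KSR1 is lost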 (primary screen). Cells: HCT116 human colon cancer cells. Reagents: siRNA pool against human genes, 50 nM siRNA. Measured: 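mRNA of six signature genes measured together by branched-DNA assay after 50 nM siRNA pool, blank removed, divided by geometric mean of two housekeeping genes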. Scale: BNIP3L mRNA: higher = more BNIP3L transcript after knockdown; NDRG1 mRNA: higher = more NDRG1 transcript after knockdown; BNIP3 mRNA: higher = more BNIP3 transcript after knockdown.
Here is an unselected part of about 14,000 deposited reagents. Not all columns of the deposit are shown. Reagent sequences are not shown. The record does not give: the time to read-out.

| gene knocked down | BNIP3L mRNA, set 1 | NDRG1 mRNA, set 1 | BNIP3 mRNA, set 1 |
| --- | --- | --- | --- |
| KIAA1755 (GeneID 85449) | 0.11 | 0.0679 | 0.313 |
| SRD5A2 (GeneID 6716) | 0.0471 | 0.1 | 0.265 |
| PMS2P5 (GeneID 5383) | 0.111 | 0.222 | 0.255 |
| HSPA5 (GeneID 3309) | 0.152 | 0.42 | 0.125 |
| HIBCH (GeneID 26275) | 0.0608 | 0.0801 | 0.328 |
| TSPAN1 (GeneID 10103) | 0.0619 | 0.16 | 0.311 |
| BRWD1 (GeneID 54014) | 0.0864 | 0.172 | 0.314 |
| TRIM28 (GeneID 10155) | 0.0655 | 0.113 | 0.196 |
| SMURF1 (GeneID 57154) | 0.0725 | 0.0788 | 0.229 |
| ACLY (GeneID 47) | 0.0501 | 0.115 | 0.185 |
| VAMP5 (GeneID 10791) | 0.0877 | 0.189 | 0.255 |
| BAIAP2L2 (GeneID 80115) | 0.32 | 0.655 | 0.57 |
| ZBTB16 (GeneID 7704) | 0.0692 | 0.224 | 0.366 |
| DIAPH2 (GeneID 1730) | 0.0562 | 0.174 | 0.292 |
| FETUB (GeneID 26998) | 0.0608 | 0.144 | 0.254 |
| TBL1X (GeneID 6907) | 0.175 | 0.107 | 0.317 |
| GOLGA2 (GeneID 2801) | 0.13 | 0.0955 | 0.263 |
| STK32C (GeneID 282974) | 0.062 | 0.194 | 0.237 |
| RASAL3 (GeneID 64926) | 0.122 | 0.23 | 0.317 |
| PARP9 (GeneID 83666) | 0.176 | 0.318 | 0.417 |
| SLC37A3 (GeneID 84255) | 0.164 | 0.295 | 0.279 |
| HAAO (GeneID 23498) | 0.113 | 0.454 | 0.345 |
| SLK (GeneID 9748) | 0.153 | 0.315 | 0.304 |
| MT-CO2 (GeneID 4513) | 0.0866 | 0.116 | 0.283 |
| PFDN4 (GeneID 5203) | 0.0748 | 0.119 | 0.223 |
| KLHDC10 (GeneID 23008) | 0.11 | 0.124 | 0.311 |
| SERPINA4 (GeneID 5267) | 0.135 | 0.132 | 0.404 |
| BHLHE41 (GeneID 79365) | 0.19 | 0.199 | 0.451 |
| TMEM50B (GeneID 757) | 0.145 | 0.137 | 0.313 |
| BLTP1 (GeneID 84162) | 0.144 | 0.35 | 0.222 |
| DISP2 (GeneID 85455) | 0.0926 | 0.267 | 0.271 |
| FOSL1 (GeneID 8061) | 0.0507 | 0.173 | 0.428 |
| PCDHB1 (GeneID 29930) | 0.175 | 0.249 | 0.286 |
| CD40LG (GeneID 959) | 0.0509 | 0.107 | 0.238 |
| COPS3 (GeneID 8533) | 0.135 | 0.353 | 0.233 |
| PPM1H (GeneID 57460) | 0.105 | 0.4 | 0.26 |
| FAHD2B (GeneID 151313) | 0.0583 | 0.0526 | 0.364 |
| B4GALT1 (GeneID 2683) | 0.0533 | 0.16 | 0.34 |
| TLK2 (GeneID 11011) | 0.0794 | 0.195 | 0.469 |
| EDN1 (GeneID 1906) | 0.113 | 0.258 | 0.163 |
| SLC7A5P1 (GeneID 81893) | 0.464 | 0.518 | 0.46 |
| CYB561 (GeneID 1534) | 0.0947 | 0.234 | 0.224 |
| PBX4 (GeneID 80714) | 0.121 | 0.152 | 0.292 |
| NRG2 (GeneID 9542) | 0.137 | 0.087 | 0.289 |
| DHX30 (GeneID 22907) | 0.105 | 0.256 | 0.356 |
| DNAJB14 (GeneID 79982) | 0.142 | 0.196 | 0.284 |
| KCNE2 (GeneID 9992) | 0.085 | 0.315 | 0.294 |
| DGAT2 (GeneID 84649) | 0.0767 | 0.457 | 0.254 |
| TLE3 (GeneID 7090) | 0.19 | 0.364 | 0.294 |
| TRMT5 (GeneID 57570) | 0.114 | 0.119 | 0.308 |

Single entries from above.
Under “BNIP3 mRNA, set 1”, SRD5A2 (GeneID 6716) is entered as 0.265
Entry for TRIM28 (GeneID 10155) under “BNIP3L mRNA, set 1”: 0.0655
CYB561 (GeneID 1534), NDRG1 mRNA, set 1 = 0.234
SLC7A5P1 (GeneID 81893), BNIP3 mRNA, set 1: 0.46
NRG2 (GeneID 9542), BNIP3 mRNA, set 1 = 0.289
Under “NDRG1 mRNA, set 1”, KCNE2 (GeneID 9992) has 0.315
